{"sequences": {"note": "Chains of the proteins cited; added tags and fusions are not shown.", "UniProt P21333": "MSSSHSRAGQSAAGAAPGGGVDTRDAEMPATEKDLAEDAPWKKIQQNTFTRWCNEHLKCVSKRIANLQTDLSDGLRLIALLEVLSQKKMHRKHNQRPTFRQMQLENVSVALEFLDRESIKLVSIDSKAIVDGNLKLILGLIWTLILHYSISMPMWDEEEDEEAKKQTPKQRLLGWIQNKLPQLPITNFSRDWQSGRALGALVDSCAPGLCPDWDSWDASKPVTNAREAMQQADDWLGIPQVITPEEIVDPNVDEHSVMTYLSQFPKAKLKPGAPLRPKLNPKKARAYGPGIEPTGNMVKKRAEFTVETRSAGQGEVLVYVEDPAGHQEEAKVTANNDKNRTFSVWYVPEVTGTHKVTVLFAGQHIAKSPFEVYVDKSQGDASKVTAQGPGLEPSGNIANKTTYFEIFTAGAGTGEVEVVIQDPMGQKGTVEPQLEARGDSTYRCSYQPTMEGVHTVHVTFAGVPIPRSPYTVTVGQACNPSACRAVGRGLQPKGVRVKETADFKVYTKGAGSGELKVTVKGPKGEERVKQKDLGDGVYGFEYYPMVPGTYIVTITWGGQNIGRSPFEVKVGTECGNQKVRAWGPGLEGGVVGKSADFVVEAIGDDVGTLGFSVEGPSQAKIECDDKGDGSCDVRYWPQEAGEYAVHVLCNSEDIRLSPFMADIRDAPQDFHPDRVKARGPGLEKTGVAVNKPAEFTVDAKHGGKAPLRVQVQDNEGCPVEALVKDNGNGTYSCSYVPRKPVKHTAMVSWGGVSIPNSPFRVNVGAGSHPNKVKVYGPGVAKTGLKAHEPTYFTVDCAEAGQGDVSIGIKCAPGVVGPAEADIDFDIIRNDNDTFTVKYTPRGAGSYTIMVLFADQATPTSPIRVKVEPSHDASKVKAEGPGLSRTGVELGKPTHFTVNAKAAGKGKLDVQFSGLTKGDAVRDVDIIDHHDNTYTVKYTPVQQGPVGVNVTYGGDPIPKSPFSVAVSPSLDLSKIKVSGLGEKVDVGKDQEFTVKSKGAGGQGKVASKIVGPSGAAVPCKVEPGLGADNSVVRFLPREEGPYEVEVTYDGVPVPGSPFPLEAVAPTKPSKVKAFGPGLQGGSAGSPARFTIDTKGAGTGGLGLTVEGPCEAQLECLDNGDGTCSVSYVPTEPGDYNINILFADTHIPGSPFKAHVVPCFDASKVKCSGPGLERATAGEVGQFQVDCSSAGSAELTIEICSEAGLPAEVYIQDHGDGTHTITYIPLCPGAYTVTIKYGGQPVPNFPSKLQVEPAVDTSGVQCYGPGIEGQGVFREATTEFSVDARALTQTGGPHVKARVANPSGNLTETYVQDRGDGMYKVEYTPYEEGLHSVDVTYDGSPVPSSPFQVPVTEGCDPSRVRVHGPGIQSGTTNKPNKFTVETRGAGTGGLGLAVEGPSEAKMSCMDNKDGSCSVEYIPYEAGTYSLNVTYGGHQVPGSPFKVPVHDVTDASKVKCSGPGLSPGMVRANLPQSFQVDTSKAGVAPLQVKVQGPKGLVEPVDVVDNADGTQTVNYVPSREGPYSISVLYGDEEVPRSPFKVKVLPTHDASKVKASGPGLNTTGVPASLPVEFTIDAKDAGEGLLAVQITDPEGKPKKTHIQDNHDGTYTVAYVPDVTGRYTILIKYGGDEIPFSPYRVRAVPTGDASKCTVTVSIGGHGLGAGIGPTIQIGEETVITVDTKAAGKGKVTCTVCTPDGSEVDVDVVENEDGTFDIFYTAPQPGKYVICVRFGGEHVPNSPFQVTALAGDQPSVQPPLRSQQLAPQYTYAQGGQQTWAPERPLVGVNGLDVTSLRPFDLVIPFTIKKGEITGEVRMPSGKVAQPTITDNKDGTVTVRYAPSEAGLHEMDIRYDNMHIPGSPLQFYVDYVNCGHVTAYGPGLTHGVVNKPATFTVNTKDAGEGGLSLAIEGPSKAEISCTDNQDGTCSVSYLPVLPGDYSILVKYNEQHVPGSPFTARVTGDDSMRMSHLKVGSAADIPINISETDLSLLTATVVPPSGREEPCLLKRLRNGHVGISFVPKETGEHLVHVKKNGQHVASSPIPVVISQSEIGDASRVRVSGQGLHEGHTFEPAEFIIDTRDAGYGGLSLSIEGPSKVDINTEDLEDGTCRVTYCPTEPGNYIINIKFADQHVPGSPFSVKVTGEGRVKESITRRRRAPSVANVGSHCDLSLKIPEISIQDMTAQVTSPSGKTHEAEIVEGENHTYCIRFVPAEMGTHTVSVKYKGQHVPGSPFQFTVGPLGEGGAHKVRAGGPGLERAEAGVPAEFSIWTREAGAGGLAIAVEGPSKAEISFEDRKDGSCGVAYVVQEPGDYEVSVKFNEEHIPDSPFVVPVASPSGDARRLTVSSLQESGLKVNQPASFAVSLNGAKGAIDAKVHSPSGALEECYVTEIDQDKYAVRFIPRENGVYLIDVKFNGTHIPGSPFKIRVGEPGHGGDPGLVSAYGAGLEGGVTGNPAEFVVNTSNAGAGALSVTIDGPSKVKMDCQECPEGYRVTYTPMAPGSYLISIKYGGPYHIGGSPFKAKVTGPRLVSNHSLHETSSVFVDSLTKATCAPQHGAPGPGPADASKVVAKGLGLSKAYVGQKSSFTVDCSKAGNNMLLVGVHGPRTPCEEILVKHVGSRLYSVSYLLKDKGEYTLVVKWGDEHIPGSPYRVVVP"}, "source": "paper doi:10.1101/721316", "molecular_target": "T1, LUZP1-YFP (human) (UniProt Q86V48)", "T1 sequence": "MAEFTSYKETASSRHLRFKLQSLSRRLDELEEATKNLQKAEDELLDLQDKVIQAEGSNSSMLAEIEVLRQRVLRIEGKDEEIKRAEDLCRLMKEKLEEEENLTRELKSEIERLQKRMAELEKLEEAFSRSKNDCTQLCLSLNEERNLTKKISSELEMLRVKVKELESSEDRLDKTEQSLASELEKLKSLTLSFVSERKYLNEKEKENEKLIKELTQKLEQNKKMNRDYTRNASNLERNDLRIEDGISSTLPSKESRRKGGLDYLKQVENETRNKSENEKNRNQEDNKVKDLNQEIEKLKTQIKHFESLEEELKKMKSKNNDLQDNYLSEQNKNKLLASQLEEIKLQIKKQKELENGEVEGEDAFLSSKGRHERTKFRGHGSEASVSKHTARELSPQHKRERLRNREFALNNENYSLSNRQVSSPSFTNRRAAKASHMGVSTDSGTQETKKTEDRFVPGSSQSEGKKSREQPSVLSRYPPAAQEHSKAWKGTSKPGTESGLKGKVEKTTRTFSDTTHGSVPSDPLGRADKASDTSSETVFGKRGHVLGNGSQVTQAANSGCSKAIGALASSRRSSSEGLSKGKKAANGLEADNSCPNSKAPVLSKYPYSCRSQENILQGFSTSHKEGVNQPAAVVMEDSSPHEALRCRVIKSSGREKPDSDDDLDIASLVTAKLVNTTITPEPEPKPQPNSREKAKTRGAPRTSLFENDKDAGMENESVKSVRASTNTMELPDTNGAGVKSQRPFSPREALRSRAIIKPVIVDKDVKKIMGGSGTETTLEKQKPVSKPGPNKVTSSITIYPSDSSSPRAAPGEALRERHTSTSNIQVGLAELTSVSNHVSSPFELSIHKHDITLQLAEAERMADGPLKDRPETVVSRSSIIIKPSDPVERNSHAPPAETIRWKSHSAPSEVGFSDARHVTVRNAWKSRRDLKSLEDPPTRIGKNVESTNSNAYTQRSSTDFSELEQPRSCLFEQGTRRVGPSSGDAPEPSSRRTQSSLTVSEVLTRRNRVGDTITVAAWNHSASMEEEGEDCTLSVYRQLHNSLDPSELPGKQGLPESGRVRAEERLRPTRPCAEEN", "experiment": "pull-down", "note": "These are yes or no findings as the source states them, for the method shown. Binding seen in cells or lysates may run through a third protein. Some binding calls cover weakened binding; strength is not graded here. Sequences can lack the tags named with a protein."}
{"substance": "filamin A (FLNA) (from UniProt P21333 1-2647)", "values": [{"measurement": "binding", "result": "binds"}]}
